Where a name gives a salt, the structure may show the parent alone. This is one part of the list. Single values of this set are uncertain.
test system: Peyronie's disease tunica albuginea primary fibroblasts; test: inhibition of TGF-beta1-induced alpha-SMA expression (myofibroblast transformation), relative to TGF-beta1-only and untreated controls; higher = stronger inhibition of myofibroblast transformation; conditions: 10 µM; TGF-beta1 10 ng/mL; 72 h

Row | Structure (SMILES) | inhibition of TGF-beta1-induced alpha-SMA expression [%]
1 | NCC[C@H](O)C(=O)N[C@@H]1C[C@H](N)[C@@H](O[C@H]2O[C@H](CN)[C@@H](O)[C@H](O)[C@H]2O)[C@H](O)[C@H]1O[C@H]1O[C@H](CO)[C@@H](O)[C@H](N)[C@H]1O [Amikacin disulfate] | -29.6
2 | NCC[C@H](O)C(=O)N[C@@H]1C[C@H](N)[C@@H](O[C@H]2O[C@H](CN)[C@@H](O)[C@H](O)[C@H]2O)[C@H](O)[C@H]1O[C@H]1O[C@H](CO)[C@@H](O)[C@H](N)[C@H]1O [Amikacin hydrate] | 21.2
3 | CC(C)CN(C[C@@H](O)[C@H](Cc1ccccc1)NC(=O)O[C@H]1CO[C@H]2OCC[C@H]21)S(=O)(=O)c1ccc(N)cc1 [Darunavir] | -1.68
4 | CC(C)CN(C[C@@H](O)[C@H](Cc1ccccc1)NC(=O)O[C@H]1CO[C@H]2OCC[C@H]21)S(=O)(=O)c1ccc(N)cc1 [Darunavir Ethanolate] | 8.49
5 | O=C(O)CSCC(=O)NC1CCSC1=O (centres undefined) [Erdosteine] | -4.43
6 | COc1cc(/C=C/C(=O)CC(=O)/C=C/c2ccc(O)c(OC)c2)ccc1O [Curcumin] | 9.18
7 | Cc1nc2n(c(=O)c1CCN1CCC(c3noc4cc(F)ccc34)CC1)CCCC2O (centres undefined) [Paliperidone] | 51.4
8 | Clc1ccc(C(Cn2ccnc2)OCc2csc3c(Cl)cccc23)c(Cl)c1 (centres undefined) [Sertaconazole nitrate] | 6.32
9 | CCOc1ccc(NC(=O)CC(C)O)cc1 (centres undefined) [Bucetin] | 8.31
10 | CC(=O)OCC1=C(C(=O)O)N2C(=O)[C@@H](NC(=O)Cc3cccs3)[C@H]2SC1 [Cephalothin] | 21.5
11 | CCCCc1nc(Cl)c(CO)n1Cc1ccc(-c2ccccc2-c2nnn[nH]2)cc1 [Losartan Potassium (DuP 753)] | -13.2
12 | CCCCc1nc(Cl)c(CO)n1Cc1ccc(-c2ccccc2-c2nnn[nH]2)cc1 [Losartan] | 7.66
13 | CC1(C)S[C@@H]2[C@H](NC(=O)Cc3ccccc3)C(=O)N2[C@H]1C(=O)O [Penicillin G Sodium] | -22.1
14 | CC1(C)S[C@@H]2[C@H](NC(=O)Cc3ccccc3)C(=O)N2[C@H]1C(=O)O [Benzylpenicillin potassium] | -1.84
15 | O=C1CCC(N2C(=O)c3ccccc3C2=O)C(=O)N1 (centres undefined) [Thalidomide] | 17.7
16 | c1cn2cc(-c3ccc4cn[nH]c4c3)nc(Nc3ccc(N4CCOCC4)cc3)c2n1 [Entospletinib (GS-9973)] | 85.8
17 | O=C1OC(CN2CCOCC2)CN1/N=C/c1ccc([N+](=O)[O-])o1 (centres undefined) [Furaltadone HCl] | -45.1
18 | C[n+]1ccccc1C=NO [Pralidoxime Iodide] | 8.88
19 | Cc1ccsc1C(=CCCN1CCC[C@@H](C(=O)O)C1)c1sccc1C [Tiagabine] | -12.4
20 | Cc1ccsc1C(=CCCN1CCC[C@@H](C(=O)O)C1)c1sccc1C [Tiagabine hydrochloride] | 8.48
21 | CNCCCN1c2ccccc2CCc2ccccc21 [Desipramine Hydrochloride] | 50.3
22 | O=C(O)CCNC(=O)c1ccc(/N=N/c2ccc(O)c(C(=O)O)c2)cc1 [Balsalazide disodium] | 2.71

A second format for part of the listing above.
Cc1ccsc1C(=CCCN1CCC[C@@H](C(=O)O)C1)c1sccc1C [Tiagabine]
  inhibition of TGF-beta1-induced alpha-SMA expression [%]: -12.4
Cc1ccsc1C(=CCCN1CCC[C@@H](C(=O)O)C1)c1sccc1C [Tiagabine hydrochloride]
  inhibition of TGF-beta1-induced alpha-SMA expression [%]: 8.48

(list continues)

Row | Structure (SMILES) | inhibition of TGF-beta1-induced alpha-SMA expression [%]
23 | Cc1cccc(Nc2ccccc2C(=O)O)c1C [Mefenamic Acid] | 14.6
24 | CCC(C)n1ncn(-c2ccc(N3CCN(c4ccc(OCC5COC(Cn6cncn6)(c6ccc(Cl)cc6Cl)O5)cc4)CC3)cc2)c1=O (centres undefined) [Itraconazole] | 15.1
25 | CCOc1cc(N)c(Cl)cc1C(=O)NCC1CN(Cc2ccc(F)cc2)CCO1 (centres undefined) [Mosapride Citrate] | -0.136
26 | CCOc1cc(N)c(Cl)cc1C(=O)NCC1CN(Cc2ccc(F)cc2)CCO1 (centres undefined) [Mosapride] | 7.52
27 | C[n+]1ccccc1/C=N/O [Pralidoxime chloride] | -2.55
28 | C[C@H]1[C@H](OC(=O)CCC(=O)O)O[C@@H]2O[C@@]3(C)CC[C@H]4[C@H](C)CC[C@@H]1[C@@]24OO3 [Artesunate] | 4.08
29 | CC(C)NCC(O)c1cc(O)cc(O)c1 (centres undefined) [Metaproterenol Sulfate] | 18.8
30 | CCc1cnn2c(NCc3ccc[n+]([O-])c3)cc(N3CCCC[C@H]3CCO)nc12 | > 100
31 | O=C1NC(=O)[C@@H](c2cn3c4c(cccc24)CCC3)[C@@H]1c1c[nH]c2ccccc12 [Tivantinib (ARQ 197)] | 33
32 | COc1ccccc1N1CCN(CCCNc2cc(=O)n(C)c(=O)n2C)CC1 [Urapidil HCl] | 74.6
33 | O=C1/C(=C2\Nc3ccc(S(=O)(=O)O)cc3C2=O)Nc2ccc(S(=O)(=O)O)cc21 [Indigo carmine] | 28.8
34 | COc1nc(N)nc2c1ncn2[C@@H]1O[C@H](CO)[C@@H](O)[C@@H]1O [Nelarabine] | -9.84
35 | CCC(=O)OCC(=O)[C@@]1(OC(=O)CC)[C@@H](C)C[C@H]2[C@@H]3CCC4=CC(=O)C=C[C@]4(C)[C@@]3(Cl)[C@@H](O)C[C@@]21C [Beclomethasone dipropionate] | 62.8
36 | O=C(/C=C/C=C/c1ccc2c(c1)OCO2)N1CCCCC1 [Piperine] | 3.89
37 | CCN(CC)Cc1cc(Nc2ccnc3cc(Cl)ccc23)ccc1O [Amodiaquine dihydrochloride dihydrate] | > 100
38 | CCN(CC)Cc1cc(Nc2ccnc3cc(Cl)ccc23)ccc1O [Amodiaquine hydrochloride] | 56.3
39 | C[C@H](CSC(=O)c1ccccc1)C(=O)N1C[C@@H](Sc2ccccc2)C[C@H]1C(=O)O [Zofenopril calcium] | 25.8
40 | CN1CCOC(c2ccccc2)c2ccccc2C1 (centres undefined) [Nefopam HCl] | 8.1
41 | CN1CCC(=C2c3ccccc3CCc3sccc32)CC1 [Pizotifen Malate] | 47.6
42 | COc1ncc(-c2ccc3nccc(-c4ccnnc4)c3c2)cc1NS(=O)(=O)c1ccc(F)cc1F | > 100
43 | C=C[C@@H]1C[C@]1(NC(=O)[C@@H]1C[C@@H]2CN1C(=O)[C@H](C(C)(C)C)NC(=O)O[C@@H]1C[C@H]1CCCCCc1nc3ccc(OC)cc3nc1O2)C(=O)NS(=O)(=O)C1CC1 [Grazoprevir] | 3.27
44 | CCN(CC)CCOc1ccc(C(=C(Cl)c2ccccc2)c2ccccc2)cc1 [Clomifene citrate] | 79.3

Row | Structure (SMILES) | inhibition of TGF-beta1-induced alpha-SMA expression [%]
45 | C[C@]1(COc2ccc(N3CCC(Oc4ccc(OC(F)(F)F)cc4)CC3)cc2)Cn2cc([N+](=O)[O-])nc2O1 [Delamanid] | 28.3
46 | CCCCNc1ccc(C(=O)OCCN(C)C)cc1 [Tetracaine HCl] | 10
47 | CCCCC(=O)N(Cc1ccc(-c2ccccc2-c2nn[nH]n2)cc1)C(C(=O)O)C(C)C.CCOC(=O)C(C)CC(Cc1ccc(-c2ccccc2)cc1)NC(=O)CCC(=O)O (centres undefined) [Sacubitril/valsartan (LCZ696)] | 0.83
48 | CCCCCOC(=O)Nc1nc(=O)n([C@@H]2O[C@H](C)[C@@H](O)[C@H]2O)cc1F [Capecitabine] | -61.2
49 | CC(C)=CCC/C(C)=C/CC/C(C)=C/CSc1ccccc1C(=O)O [Salirasib] | 3.04
50 | Cc1ncc(COP(=O)(O)O)c(C=O)c1O [Pyridoxal phosphate] | 88.6
51 | CC(COc1ccccc1Cc1ccccc1)N1CCCCC1 (centres undefined) [Benproperine phosphate] | 33.5
52 | CC(O)(P(=O)(O)O)P(=O)(O)O [Etidronate] | 58.3
53 | O=C(O)COCCN1CCN([C@H](c2ccccc2)c2ccc(Cl)cc2)CC1 [Levocetirizine Dihydrochloride] | 34.4
54 | Cc1cnc(C(=O)NCCc2ccc(S(=O)(=O)NC(=O)NC3CCCCC3)cc2)cn1 [Glipizide] | -2.53
55 | COc1ccc2c(O[C@@H]3C[C@H]4C(=O)N[C@]5(C(=O)NS(=O)(=O)C6CC6)C[C@H]5/C=C\CCCCN(C)C(=O)[C@@H]4C3)cc(-c3nc(C(C)C)cs3)nc2c1C [Simeprevir] | -3.57
56 | O=C1[C@H](CC[C@H](O)c2ccc(F)cc2)[C@@H](c2ccc(O)cc2)N1c1ccc(F)cc1 [Ezetimibe] | 11.1
57 | COC(=O)C1=C(C)NC(C)=C(C(=O)OCCN(C)Cc2ccccc2)C1c1cccc([N+](=O)[O-])c1 (centres undefined) [Nicardipine] | 29.7
58 | COC(=O)C1=C(C)NC(C)=C(C(=O)OCCN(C)Cc2ccccc2)C1c1cccc([N+](=O)[O-])c1 (centres undefined) [Nicardipine HCl] | -30.5
59 | OC[C@H]1O[C@@H](c2ccc(Cl)c(Cc3ccc(O[C@H]4CCOC4)cc3)c2)[C@H](O)[C@@H](O)[C@@H]1O | 65.8
60 | CCCC(=O)[O-].[Na+] [Sodium butyrate] | 45.3
61 | C/C=C(/C)C(=O)O[C@H]1[C@H](OC(C)=O)[C@@]2(CO)C(CC1(C)C)C1=CCC3[C@@]4(C)CCC(O[C@@H]5O[C@H](C(=O)O)[C@@H](O[C@@H]6O[C@H](CO)[C@@H](O)[C@H](O)[C@H]6O)[C@H](O)[C@H]5O[C@@H]5O[C@H](CO)[C@@H](O)[C@H](O)[C@H]5O)[C@](C)(CO)C4CC[C@@]3(C)[C@]1(C)C[C@H]2O.C/C=C(\C)C(=O)O[C@H]1[C@H](OC(C)=O)[C@@]2(CO)C(CC1(C)C)C1=CCC3[C@@]4(C)CCC(O[C@@H]5O[C@H](C(=O)O)[C@@H](O[C@@H]6O[C@H](CO)[C@@H](O)[C@H](O)[C@H]6O)[C@H](O)[C@H]5O[C@@H]5O[C@H](CO)[C@@H](O)[C@H](O)[C@H]5O)[C@](C)(CO)C4CC[C@@]3(C)[C@]1(C)C[C@H]2O (some centres undefined) [Escin] | 54.4
62 | Oc1cc(O)c(Cl)cn1 [Gimeracil] | 2.11
63 | COC(=O)C1=C(C)NC(C)=C(C(=O)OCC(C)C)C1c1ccccc1[N+](=O)[O-] (centres undefined) [Nisoldipine] | 16.9
64 | CN(C)CCOC(c1ccc(Cl)cc1)c1ccccn1 (centres undefined) [CarbinoxaMine Maleate] | 26.8

— the supplement of paper PMC9744312
